# In PubChem BioAssay (EPA / NIEHS):
# Protein sequences, listed by entry. Tags and fused reporters are not part of them.
# UniProt P04637, whole entry, looked up: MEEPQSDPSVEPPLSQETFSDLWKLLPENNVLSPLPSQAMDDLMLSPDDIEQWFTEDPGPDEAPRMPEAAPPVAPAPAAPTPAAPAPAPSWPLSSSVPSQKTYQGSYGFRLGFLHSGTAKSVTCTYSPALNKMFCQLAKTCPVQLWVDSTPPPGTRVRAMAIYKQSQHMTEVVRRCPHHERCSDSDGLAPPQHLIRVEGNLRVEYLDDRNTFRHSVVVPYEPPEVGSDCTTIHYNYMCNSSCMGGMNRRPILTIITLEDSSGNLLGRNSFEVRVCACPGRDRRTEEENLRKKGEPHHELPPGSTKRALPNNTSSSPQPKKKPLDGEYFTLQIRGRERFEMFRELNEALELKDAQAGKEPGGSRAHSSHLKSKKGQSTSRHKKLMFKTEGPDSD
# “And” between values parts separate entries of the source, which are not always exact repeats. Equal entries are not always repeated. The shares of active, inactive and inconclusive entries below differ from those in the screen. A potency beside an inconclusive call is a rough fit, not a confirmed value. The source made the active and inactive calls. How the source made its calls: active means hit-call score of the fitted dose curve at least 0.9, where 1 is the maximum; inconclusive means response in the unintended direction; inactive means score below 0.9.
# Test system: not listed separately
# Assay: TOX21_p53_BLA_p5_viability: Viability Assessment in the Tox21 HCT-116 p53 Agonism Beta-lactamase Assay, Phase 5 (AID 2283600)
# Procedure, shortened: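 Decreased CellTiter-Glo luminescence denotes lost viability. Exposure: 16 h at 37C, 5% CO2, with compounds from DMSO stocks diluted 217-fold in wells of 4000 cells.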
SMILES,AC50,outcome
Cc1ccc(S(=O)(=O)NCl)cc1,inconclusive: 40.6 µM,inactive
CCCCCCCCN(C)CCCCCCCC,inconclusive: 0.000119 µM,
CC(=O)OCCOC(C)=O,inconclusive: 0.019 µM,inactive
CCCCOC(=O)CCCCCCCCC(=O)OCCCC,inconclusive: 83.3 µM,
Cc1cccc(O)c1C,inconclusive: 47.2 µM,inactive
CCC(C)(C)C(=O)O[C@H]1C[C@@H](C)C=C2C=C[C@H](C)[C@H](CC[C@@H]3C[C@@H](O)CC(=O)O3)[C@H]21,inconclusive: 10.3 µM,
C=C(C)C(=O)OCCC(F)(F)C(F)(F)C(F)(F)C(F)(F)C(F)(F)C(F)(F)F,inconclusive: 46.1 µM,
NS(=O)(=O)c1cc2c(cc1Cl)NCNS2(=O)=O,inconclusive: 46.1 µM,inactive
COC(=O)c1ccc(O)cc1,inconclusive: 46.1 µM,
CCCCCCC(CCCCCCCCCCC(=O)OCC(COC(C)=O)OC(C)=O)OC(C)=O (stereo not drawn),,inactive
NC(=O)NN=Cc1ccc([N+](=O)[O-])o1,,inactive
CCC(C)N(C)C(=O)c1cc2ccccc2c(-c2ccccc2Cl)n1 (stereo not drawn),,inactive
O=C1OC2(c3ccccc31)c1cc(Br)c(O)c(Br)c1Oc1c2cc(Br)c(O)c1Br,inconclusive: 23 µM and inconclusive: 42.4 µM,

# Target: Cellular tumor antigen p53 (Homo sapiens) (UniProt P04637)
# Assay: TOX21_p53_BLA_p4_ratio: Tox21 HCT-116 p53 Agonism Beta-lactamase Assay, Ratio, Phase 4 (AID 2283601)
# Procedure, shortened: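 HCT116 cells carrying an inducible beta-lactamase reporter were plated at 4000 cells/well, rested 5 h, then exposed to compounds in DMSO (217-fold dilution) for 16 h at 37C. CCF4-AM substrate was loaded 2 h at room temperature; 460/530 nm emission ratio scored gain-of-signal versus DMSO.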
SMILES,AC50,outcome
O=c1n(CC2CO2)c(=O)n(CC2CO2)c(=O)n1CC1CO1 (stereo not drawn),active: 33.7 µM and active: 32.1 µM and active: 23.5 µM,
CCCC(=O)OCCC(C)C,inconclusive: 46.1 µM,
Cc1ccc(S(=O)(=O)NCl)cc1,inconclusive: 40.6 µM,
CC(=O)OCCOC(C)=O,inconclusive: 46 µM,
CCCCOC(=O)CCCCCCCCC(=O)OCCCC,,inactive
CC(C)c1cccc(O)c1,,inactive
NS(=O)(=O)c1cc2c(cc1Cl)NCNS2(=O)=O,inconclusive: 45.5 µM,
COC(=O)c1ccc(O)cc1,inconclusive: 46.5 µM,
COc1ccc2[nH]cc(CCNC(C)=O)c2c1,inconclusive: 78.7 µM and inconclusive: 23 µM,
NC(=O)NN=Cc1ccc([N+](=O)[O-])o1,inconclusive: 45.2 µM and inconclusive: 23 µM,inactive

# Test system: not listed separately
# Assay: Tanguay_ZF_120hpf_AXIS_legacy: (Legacy) Oregon State University Tanguay Lab 120 Hour Post-fertilization zebrafish Assay for Body Axis Malformation (AID 2283635);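 on AC50: potency for an increased fraction of larvae scored with body axis malformation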
# Procedure, shortened: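 Dechorionated wild-type Tropical 5D zebrafish embryos, one per well, statically exposed from 6 hpf to 120 hpf at 28C in 0.64% DMSO final. Body axis malformation scored present/absent by brightfield microscopy at 120 hpf; dead embryos excluded.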
SMILES,AC50,outcome
CCCCOC(=O)CCCCCCCCC(=O)OCCCC,inconclusive: 8.04 µM,
NC(=O)NN=Cc1ccc([N+](=O)[O-])o1,,inactive
CC(C)CCCCCCOC(=O)C1CCCCC1C(=O)OCCCCCCC(C)C (stereo not drawn),inconclusive: 12.7 µM,
